Results taken from patent US7223837B2, “Elongated and multiple spacers in activatible prodrugs” (Syntarga B.V., priority 2001, dated 2007).
At least one read-out could not be matched to a standard name with certainty.

Amino acid sequences for entries named in this document (tags omitted). Residues count along the entry.
UniProt P00747, 97-580 partner limits assumed: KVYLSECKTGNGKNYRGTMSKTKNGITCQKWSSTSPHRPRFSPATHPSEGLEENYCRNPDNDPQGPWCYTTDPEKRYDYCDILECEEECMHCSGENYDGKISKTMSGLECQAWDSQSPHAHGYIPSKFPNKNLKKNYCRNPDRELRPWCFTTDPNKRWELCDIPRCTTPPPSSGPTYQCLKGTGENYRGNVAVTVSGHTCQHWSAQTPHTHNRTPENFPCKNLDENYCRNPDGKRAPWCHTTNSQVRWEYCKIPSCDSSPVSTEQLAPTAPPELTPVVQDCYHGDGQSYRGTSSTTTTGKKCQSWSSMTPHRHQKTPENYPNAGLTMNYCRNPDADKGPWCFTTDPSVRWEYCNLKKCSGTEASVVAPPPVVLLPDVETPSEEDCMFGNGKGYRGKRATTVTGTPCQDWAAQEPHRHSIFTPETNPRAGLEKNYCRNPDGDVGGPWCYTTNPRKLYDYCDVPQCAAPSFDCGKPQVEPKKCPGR
UniProt P00747, 581-810 limits assumed: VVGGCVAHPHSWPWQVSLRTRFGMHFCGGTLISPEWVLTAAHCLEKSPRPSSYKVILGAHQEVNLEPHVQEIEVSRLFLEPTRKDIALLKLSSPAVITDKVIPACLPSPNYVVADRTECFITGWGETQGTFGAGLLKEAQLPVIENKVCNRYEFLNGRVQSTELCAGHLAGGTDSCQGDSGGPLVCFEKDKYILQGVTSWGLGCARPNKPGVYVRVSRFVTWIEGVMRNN

Biological target: T1, human plasmin (Homo sapiens, UniProt P00747)
T1 construct: purchased Fluka
Experiment: Enzymatic hydrolysis of doxorubicin prodrugs by plasmin (HPLC)
Format: biochemical
Conditions: [prodrug] 200 μM, [plasmin] 20 μg/mL, pH 7.3

H-D-Ala-Phe-Lys-PABC-PABC-DOX.5.7HCl [Prodrug 20]
T1/2 activation: 12 min
